# Source: the supplement of paper PMC10338343
# ± gives the standard deviation. Some of the results follow. Many entries were measured with a wide error.
# Tested on: EfPiwi piRISC loaded with L1MC piRNA (26 nt)
# Experiment: pre-steady-state target cleavage rate (min^-1); guide: L1MC piRNA 5'p-UAACUAAAUACUAUGCAAGCUGUAGG; MIWI and MILI are mouse PIWI proteins and EfPiwi is from a freshwater sponge; tags in brackets are library labels; higher = faster piRNA-guided slicing of the target
# Details: auxiliary factor: 500 nM Ephydatia muelleri Gtsf1
# How it was run: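 The pre-steady-state cleavage rate was derived from a burst-and-steady-state fit of Cleave-'n-Seq data. For these assays, 1 nM active affinity-purified piRISC loaded with a single synthetic guide was mixed with […] a transcribed, DNA-blocked target RNA library in HEPES–potassium acetate buffer at 33 °C, with or without 500 nM GTSF1 partner protein, for 0–8 or 0–960 min. Sequencing counts of uncleaved targets were normalised to depth and to weakly complementary targets, and k3 was capped at 0.0001 min^-1 after three trials were pooled.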
row,Sequence,pre-steady-state target cleavage rate
1,UCCUCCUACAGCUUGCAUAGUGUUUAGUUA,0.0149 ± 0.0041
2,UCCUGGAUCAGCUUGCAUACUAAUUAGUUA,0.00158 ± 0.0023
3,UCCUCCUACUGCUUGCAUAGUAUUAAGUUA,0.00682 ± 0.0034
4,UCCUCCUACAGCUUGCAUAGUAUAUAGUUA,0.00814 ± 0.0038
5,UCCUGGAUCACCUUGCAUAGUAAUUAGUUA,0.123 ± 0.049
6,UCCUGGAUGUCGAAGCAUAGUAUUAUCAAA [g7:g16:cont:t1A],0.000156 ± 0.021
7,UCCUGGAUGUCCUUGCAUAGUAUUGUAGUUA,0.00313 ± 0.0036
8,UCCUCCUUCAGCUUGCAUAGUAUUAAGUUA,0.00716 ± 0.0031
9,UCCUGGAUGUCGAACGUUGAGUAUUUAGUUA,0.000285 ± 0.019
10,UCCUGGAUCAGCUGCAUAGUAUUUAGUUA,0.0152 ± 0.0053
11,UCCUGGAUGUCGUUGGUAAGUAUUUAGUUA,< 0.0001
12,UCCUGGUAUAGCUUGCAUAGUAUUUAGUUA,0.0287 ± 0.0075
13,UCCUGCUACAGCUUGCAUAGUAGUUAGUUA,0.00461 ± 0.0015
14,UCCUGGUACAGCUUCAUAGUAUUUAGUUA,0.0159 ± 0.0055
15,UCCUGGAUGAGCAUGCAUUGUAUUUAGUUA,0.00289 ± 0.0022
16,UCCUGGUACAGCUUGGAUAGUAUUAAGUUA,0.00235 ± 0.0032
17,UCCUGGAUGUGCUAUGCAUAGUAUUUAGUUA,0.0103 ± 0.0036
18,UCCUCCUACAAGCUUGCAUAGUAUUUAGUUA,0.0104 ± 0.0039
19,UCCUCCUACAGCUUGCAUAGUCUUUAGUUA,0.0068 ± 0.0025
20,UCCUGGUACUGCUUGCAUAGUAAUUAGUUA,0.114 ± 0.043
21,UCCUGGAUGUCGAACGAUAGUAUUUCAGUUA,0.000179 ± 0.032
22,UCCUCCUACAGCUUGCAUAGUAUAUUAGUUA,0.0567 ± 0.019
23,UCCUGGAUGUCGAACGUUAGUAUUUAGAAA,0.000115 ± 0.079
24,UCCUGGAACAGCUUGCAUUCUAUUUAGUUA,0.000684 ± 0.006

# 2 entries drawn at random from those above:
row,Sequence,pre-steady-state target cleavage rate
15,UCCUGGAUGAGCAUGCAUUGUAUUUAGUUA,0.00289 ± 0.0022
13,UCCUGCUACAGCUUGCAUAGUAGUUAGUUA,0.00461 ± 0.0015
